Measurements reported in PMC9687583.
Results are given in words; binding and its absence hold for the method and conditions named. Some binding calls cover weakened binding; strength is not graded here.

Molecular target: T1, Human C-C motif ligand 16 (CCL16) (human), O15467
T1 chain: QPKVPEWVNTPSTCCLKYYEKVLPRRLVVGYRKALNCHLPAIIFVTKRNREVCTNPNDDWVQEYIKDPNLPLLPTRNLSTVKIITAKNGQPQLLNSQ
Assay: crystal structure; sitting drop, 293 K, 1.6 M sodium citrate pH 6.5; space group C2, two chains per asymmetric unit; 1.45 Å; both purified
Conditions: remark: other sources report otherwise

B1: Human C-C motif ligand 16 (CCL16), O15467 24-120 (natural protein)
chain: T1 chain
modifications: here or on the partner: two intramolecular disulphide bonds (confirmed by CE-MS and electron density); two intramolecular disulphide bonds (confirmed by CE-MS and electron density)
binding: binds
